# From PubChem BioAssay (NCATS)
# Protein sequences, listed by entry. Tags and fused reporters are not part of them. Lines headed by an entry give the natural chain unless they say otherwise; changes in a name come on top.
# UniProt Q9UNA4: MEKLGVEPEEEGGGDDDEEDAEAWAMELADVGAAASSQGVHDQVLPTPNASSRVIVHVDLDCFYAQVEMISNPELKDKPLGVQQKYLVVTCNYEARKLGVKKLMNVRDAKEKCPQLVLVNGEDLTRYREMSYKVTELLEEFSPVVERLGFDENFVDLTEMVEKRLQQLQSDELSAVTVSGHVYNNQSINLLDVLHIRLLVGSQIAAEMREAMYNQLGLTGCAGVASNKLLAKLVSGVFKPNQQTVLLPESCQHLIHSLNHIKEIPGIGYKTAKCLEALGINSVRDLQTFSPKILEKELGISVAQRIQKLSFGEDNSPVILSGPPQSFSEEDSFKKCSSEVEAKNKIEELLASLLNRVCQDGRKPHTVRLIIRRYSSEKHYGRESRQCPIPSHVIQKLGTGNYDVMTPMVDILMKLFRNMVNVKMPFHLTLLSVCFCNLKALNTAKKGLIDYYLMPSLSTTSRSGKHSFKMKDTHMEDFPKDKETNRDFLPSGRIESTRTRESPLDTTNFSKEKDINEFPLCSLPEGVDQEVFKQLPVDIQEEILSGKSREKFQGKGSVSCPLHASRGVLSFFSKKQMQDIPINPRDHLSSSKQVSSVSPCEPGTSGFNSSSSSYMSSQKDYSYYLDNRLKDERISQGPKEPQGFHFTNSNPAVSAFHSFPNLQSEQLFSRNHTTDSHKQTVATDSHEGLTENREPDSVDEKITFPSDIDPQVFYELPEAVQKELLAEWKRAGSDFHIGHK
# UniProt Q8WZA2: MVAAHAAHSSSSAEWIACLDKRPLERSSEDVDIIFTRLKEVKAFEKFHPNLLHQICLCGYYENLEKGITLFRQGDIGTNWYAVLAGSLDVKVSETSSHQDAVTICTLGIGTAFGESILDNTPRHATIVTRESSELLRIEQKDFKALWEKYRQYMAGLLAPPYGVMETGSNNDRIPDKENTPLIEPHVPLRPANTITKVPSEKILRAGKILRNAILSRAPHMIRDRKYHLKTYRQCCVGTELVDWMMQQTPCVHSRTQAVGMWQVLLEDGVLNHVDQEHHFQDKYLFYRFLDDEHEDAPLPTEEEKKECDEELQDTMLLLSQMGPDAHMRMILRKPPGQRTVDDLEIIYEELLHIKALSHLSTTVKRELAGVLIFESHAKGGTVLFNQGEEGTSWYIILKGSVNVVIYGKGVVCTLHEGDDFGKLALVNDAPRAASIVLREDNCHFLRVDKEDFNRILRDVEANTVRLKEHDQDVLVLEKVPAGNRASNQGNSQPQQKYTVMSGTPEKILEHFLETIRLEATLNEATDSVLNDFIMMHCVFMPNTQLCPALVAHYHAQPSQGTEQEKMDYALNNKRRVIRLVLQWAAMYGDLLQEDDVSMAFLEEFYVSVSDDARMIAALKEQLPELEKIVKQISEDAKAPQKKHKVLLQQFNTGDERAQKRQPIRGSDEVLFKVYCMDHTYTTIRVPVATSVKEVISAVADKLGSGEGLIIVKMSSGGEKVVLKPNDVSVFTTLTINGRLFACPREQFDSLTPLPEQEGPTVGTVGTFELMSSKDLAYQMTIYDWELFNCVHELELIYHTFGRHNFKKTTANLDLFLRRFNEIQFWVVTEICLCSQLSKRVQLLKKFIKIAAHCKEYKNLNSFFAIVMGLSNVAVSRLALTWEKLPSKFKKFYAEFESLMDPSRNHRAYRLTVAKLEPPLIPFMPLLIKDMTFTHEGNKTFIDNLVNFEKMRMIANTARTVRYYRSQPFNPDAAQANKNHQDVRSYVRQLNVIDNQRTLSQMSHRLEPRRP
# Inconclusive means that the source gave no clear call. Such entries were picked first, then a sample of the others. For part of these data: Potencies of inconclusive entries are doubtful fits and often do not repeat. Activity calls are given as the source filed them. Calls come from the whole dose curve; as a rule, active = well fitted curve in the direction sought with a large enough effect; inconclusive = small, poorly fitted or top-dose-only effect, or another doubt; inactive = no such curve, though single readings can be large; an effect the other way counts as inactive or inconclusive.
# Experiments:
# [1] = biological target: DNA polymerase iota (Homo sapiens) (UniProt Q9UNA4); assay: qHTS for Inhibitors of Polymerase Iota: Confirmatory Assay for Cherry-picked Compounds (AID 720496); details: Pol iota primer extension, TAMRA/BHQ fluorescence; note: potency is the fitted concentration of half-maximal effect
# How it was run: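 Human Pol iota (10 nM) was preincubated 15 min at room temperature with compound, then started with 50 nM TAMRA/BHQ-2 quenched primer-template substrate. Fluorescence (ex 525/em 598 nm) was read at 0 and 10 min.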
# [2] = qHTS for Inhibitors of WRN Helicase: Thiazole Orange DNA Binding Counterscreen (AID 720499);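 note: drop in dye fluorescence marks compound binding to DNA; potency is the fitted concentration of half-maximal effect; nearly all actives have a fitted effect of over 60% in size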
# How it was run: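 Readout: ThO fluorescence, ex 480 nm/em 530 nm. Mix: 50 nM unlabeled DNA, 100 nM ThO. Compounds pintooled in, 15 min RT before reading.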
# [3] = biological target: Rap guanine nucleotide exchange factor 3 (Homo sapiens) (UniProt O95398); assay: Confirmatory qHTS for antagonist of cAMP-regulated guanine nucleotide exchange factor 3 (EPAC1) (AID 1645880); details: EPAC1 Rap1B-BODIPY-GDP exchange, fluorescence; activity, negative = inhibition: at 115 µM (top of the series); note: nearly all actives have a fitted effect of over 55% in size; note: potency is the fitted concentration of half-maximal effect;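 for activity, negative = inhibition: plate controls were DMSO only for no effect and full effect of the ATA control for full effect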
# How it was run: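 Nucleotide exchange uses 100 nM EPAC1, 250 nM RAP1B-BODIPY-GDP and 50 uM GDP, with compounds in a concentration-titration series. After 5 min at room temperature, fluorescence (480 nm ex/540 nm em) is read every 5 min for 30 min. Data are normalized to control ATA and DMSO.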
# [4] = biological target: Rap guanine nucleotide exchange factor 4 (Homo sapiens) (UniProt Q8WZA2); assay: Confirmatory qHTS for agonist of cAMP-regulated guanine nucleotide exchange factor 4 (EPAC2) (AID 1645884); details: EPAC2 GEF activity, Rap1B-BODIPY-GDP fluorescence; activation: at 154 µM (top of the series), percent relative to cAMP agonist control;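 note: nucleotide exchange releases bodipy-GDP from Rap1 and this lowers its fluorescence; nearly all actives have a fitted effect of over 65% in size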; note: potency is the fitted concentration of half-maximal effect; for activation: % is set by controls: 0 for no effect and ±100 for the full control effect
# [5] = biological target: Rap guanine nucleotide exchange factor 4 (Homo sapiens) (UniProt Q8WZA2); assay: Confirmatory qHTS for antagonist of cAMP-regulated guanine nucleotide exchange factor 4 (EPAC2) (AID 1645885); details: activity change, negative = inhibition: at 12.7 µM (top of the series) unless noted; note: nearly all actives have a fitted effect of over 25% in size; note: potency is the fitted concentration of half-maximal effect; for activity change, negative = inhibition: % is set by controls: 0 for no effect and ±100 for the full control effect
# [6] = biological target: Rap guanine nucleotide exchange factor 3 (Homo sapiens) (UniProt O95398); assay: Counterscreen qHTS for agonist of cAMP-regulated guanine nucleotide exchange factor 3 (EPAC1) (AID 1645889); details: EPAC1 Rap1B-BODIPY-GDP exchange, fluorescence; activation: at 154 µM (top of the series) unless noted; note: nearly all actives have a fitted effect of over 40% in size; note: potency is the fitted concentration of half-maximal effect; for activation: % of control where 0% means no effect
# How it was run: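 Measured: fluorescence of BODIPY-GDP bound to Rap1B, which falls as exchange proceeds. Conditions include 50 uM competing GDP, 5 and 30 min reads, and a later cAMP challenge for antagonist detection.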
# [7] = qHTS for Inhibitors of the vitamin D receptor (VDR): Hit Validation using a Texas Red Assay (AID 602201); note: potency is the fitted concentration of half-maximal effect
# How it was run: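 Fluorescence polarization (Ex 595/Em 615 nm) of Texas Red (7 nM) with 1.5 uM VDR-LBD and LG19078 (final concentrations). Compounds were incubated for 2 hours at room temperature.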
# [8] = qHTS for Inhibitors of the vitamin D receptor (VDR): Hit Validation using a Cytotoxicity Assay (AID 602204);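 note: plate controls were DMSO for no effect and high-concentration cycloheximide for full effect; nearly all actives have a fitted effect of over 75% in size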
# How it was run: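 Using cycloheximide at high concentration as positive control and DMSO as negative, cells plated at 20,000 per well (4 h) are exposed to compounds for 18 h; ATP luminescence is read after 30 min.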
structure (smiles),measurement,setting,value
O=C1Nc2ccccc2/C1=N\N=C\c1ccc(O)c(O)c1,Potency,[1],"inconclusive: 37.7 µM [inhibitor, partial curve]"
same,Potency,[2],"inconclusive: 24.1 µM [inhibitor, partial curve]"
same,Potency,[3],"inconclusive: 7.57 µM [inhibitor, full curve]"
same,Potency,[4],"inconclusive: 79.4 µM [activator, partial curve]"
same,Potency,[5],"inconclusive: 1.07 µM [inhibitor, full curve, poor fit]"
same,activation,[6],inconclusive: 64.8% [activator]
N/C(CSc1nc(-c2ccccc2)c(-c2ccccc2)o1)=N\O,Potency,[3],"inconclusive: 75.7 µM [inhibitor, partial curve]"
same,Potency,[4],"inconclusive: 63.1 µM [activator, partial curve, poor fit]"
same,Potency,[5],active: 16.9 µM
same,Potency,[6],"inconclusive: 3.55 µM [activator, full curve, poor fit]"
Cc1ccc(-c2cc(C(=O)Nc3ccncc3)c3ccccc3n2)cc1,Potency,[3],"inconclusive: 15.1 µM [inhibitor, partial curve, poor fit]"
same,Potency,[4],inactive
same,Potency,[5],"inconclusive: 0.169 µM [inhibitor, full curve, poor fit]"
same,activation,[6],inconclusive: 55.9% [activator]
CCCCN(C=O)c1c(CC)nc2c(OCc3ccc(C(F)(F)F)cc3)cccn12,Potency,[3],"inconclusive: 75.7 µM [inhibitor, partial curve]"
same,Potency,[4],inactive
same,Potency,[5],"inconclusive: 67.5 µM [inhibitor, partial curve]"
same,Potency,[6],inactive
S=C(Nc1ccc2nsnc2c1)N1CCCCC1,Potency,[3],"inconclusive: 23.9 µM [inhibitor, full curve]"
same,Potency,[4],"inconclusive: 112 µM [activator, partial curve, poor fit]"
same,Potency,[5],"inconclusive: 53.6 µM [inhibitor, partial curve]"
same,Potency,[6],"inconclusive: 4.47 µM [activator, full curve]"
O=C(/C=C/c1ccco1)Oc1cc(Br)cc(/C=N/NC(=O)c2ccccc2O)c1,Potency,[3],"inconclusive: 42.6 µM [inhibitor, partial curve, poor fit]"
same,Potency,[4],"inconclusive: 126 µM [activator, single point]"
same,Potency,[5],"inconclusive: 95.3 µM [inhibitor, single point]"
same,Potency,[6],"inconclusive: 0.0631 µM [activator, partial curve, poor fit]"
O=C(O)c1cccc(Cn2c(Cl)c(/C=N/NC(=O)c3cc4ccccc4cc3O)sc2=O)c1,Potency,[3],"inconclusive: 37.9 µM [inhibitor, partial curve]"
same,Potency,[4],"inconclusive: 63.1 µM [activator, partial curve, poor fit]"
same,Potency,[5],"inconclusive: 3.01 µM [inhibitor, partial curve, poor fit]"
same,activation,[6],inconclusive: 27.9% [activator]
CN1C(=O)Cc2cc(S(=O)(=O)N3CCN(c4ccccc4F)CC3)ccc21,Potency,[3],inactive
same,Potency,[4],inactive
same,Potency,[5],inactive
same,Potency,[6],"inconclusive: 12.6 µM [activator, partial curve]"
CC(=O)NC(c1cccc(F)c1)c1nc(/C=C/c2ccccc2)cs1 (stereo not given),Potency,[3],"inconclusive: 75.7 µM [inhibitor, partial curve]"
same,Potency,[4],"inconclusive: 100 µM [activator, partial curve, poor fit]"
same,Potency,[5],"inconclusive: 47.8 µM [inhibitor, partial curve]"
same,activation,[6],inconclusive: 44% [activator]
Cc1cc(C)c(S(=O)(=O)Nc2ccc3c(c2)CCC3)c(C)c1,Potency,[3],"inconclusive: 75.7 µM [inhibitor, partial curve]"
same,Potency,[4],"inconclusive: 31.6 µM [activator, partial curve, poor fit]"
same,Potency,[5],"inconclusive: 42.6 µM [inhibitor, full curve]"
same,Potency,[6],inactive
CCOc1ccc(-n2cnc3scc(-c4ccc(OC)c(OC)c4)c3c2=O)cc1,Potency,[3],inactive
same,Potency,[4],"inconclusive: 112 µM [activator, single point]"
same,Potency,[5],inactive
same,activation,[6],inconclusive: 22.1% [activator]
O=C(Nc1ncccc1O)c1c(O)c2ccccc2[nH]c1=O,Potency,[3],"inconclusive: 21.3 µM [inhibitor, full curve, poor fit]"
same,Potency,[4],active: 100 µM
same,Potency,[5],"inconclusive: 75.7 µM [inhibitor, single point]"
same,Potency,[6],inactive
O=C(NC1(O)C(=O)c2ccccc2C1=O)c1ccccc1,Potency,[7],active: 6.31 µM
same,Potency,[8],inactive
same,Potency,[3],"inconclusive: 47.8 µM [inhibitor, partial curve, poor fit]"
same,Potency,[4],inactive
same,Potency,[5],"inconclusive: 60.1 µM [inhibitor, partial curve, poor fit]"
same,Potency,[6],"inconclusive: 4.47 µM [activator, partial curve]"
O=C(N/N=C/c1c(O)n(-c2ccccc2Cl)c(=O)c2ccccc12)C1COc2ccccc2O1 (stereo not given),Potency,[3],active: 42.6 µM
same,Potency,[4],inactive
same,Potency,[5],"inconclusive: 60.1 µM [inhibitor, partial curve, poor fit]"
same,Potency,[6],inactive

# 3 neighbouring records out of the list so far, for reference:
structure (smiles),measurement,setting,value
Cc1ccc(-c2cc(C(=O)Nc3ccncc3)c3ccccc3n2)cc1,activation,[6],inconclusive: 55.9% [activator]
CCCCN(C=O)c1c(CC)nc2c(OCc3ccc(C(F)(F)F)cc3)cccn12,Potency,[3],"inconclusive: 75.7 µM [inhibitor, partial curve]"
same,Potency,[4],inactive

# Shown with tabs: entries from further up.
structure (smiles)	measurement	setting	value
CC(=O)NC(c1cccc(F)c1)c1nc(/C=C/c2ccccc2)cs1 (stereo not given)	Potency	[3]	inconclusive: 75.7 µM [inhibitor, partial curve]
O=C(Nc1ncccc1O)c1c(O)c2ccccc2[nH]c1=O	Potency	[3]	inconclusive: 21.3 µM [inhibitor, full curve, poor fit]
